The results in this text go back to article PMC5175275.

Assay [1] addresses T1, full-length Isl1 (bait in pGBKT7) (UniProt P61372).
T1 sequence: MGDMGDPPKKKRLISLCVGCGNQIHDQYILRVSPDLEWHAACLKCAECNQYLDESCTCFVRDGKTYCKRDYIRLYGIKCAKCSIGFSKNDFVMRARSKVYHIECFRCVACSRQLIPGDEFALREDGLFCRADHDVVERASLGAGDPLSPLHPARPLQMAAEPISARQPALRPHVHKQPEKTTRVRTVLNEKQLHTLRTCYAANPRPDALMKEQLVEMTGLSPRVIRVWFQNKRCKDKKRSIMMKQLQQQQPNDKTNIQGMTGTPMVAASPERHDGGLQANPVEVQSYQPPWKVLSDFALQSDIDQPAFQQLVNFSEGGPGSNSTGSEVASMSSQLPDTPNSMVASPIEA
Kind of assay: two-hybrid; retest: single bait and prey plasmids cotransformed into Yeast Gold; clones patched onto DDO/X/A and QDO/X/A medium.

The target in the next assay is T2, HA epitope-tagged Isl1 (UniProt P61372).
T2 sequence: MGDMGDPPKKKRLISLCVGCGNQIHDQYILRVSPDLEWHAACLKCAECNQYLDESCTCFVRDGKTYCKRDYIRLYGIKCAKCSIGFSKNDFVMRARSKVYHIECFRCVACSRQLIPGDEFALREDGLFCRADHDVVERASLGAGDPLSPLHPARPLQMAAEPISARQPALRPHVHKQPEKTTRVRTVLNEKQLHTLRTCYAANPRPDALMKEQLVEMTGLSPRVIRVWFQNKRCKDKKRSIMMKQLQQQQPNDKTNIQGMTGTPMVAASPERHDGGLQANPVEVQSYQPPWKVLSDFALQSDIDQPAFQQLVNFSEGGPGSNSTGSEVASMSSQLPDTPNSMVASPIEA
As to the kind of experiment: co-IP; 293FT cells transfected with pXJ40-HA-Isl1 and/or pXJ40-MYC-PIASy, harvested after 48 hours; nondenaturing lysis buffer; lysate with anti-HA or anti-MYC agarose beads at 4 °C overnight; blot with anti-MYC or anti-HA.

Assay [2] deals with T3, MYC epitope-tagged PIASy (mouse) (UniProt Q9JM05).
T3 sequence: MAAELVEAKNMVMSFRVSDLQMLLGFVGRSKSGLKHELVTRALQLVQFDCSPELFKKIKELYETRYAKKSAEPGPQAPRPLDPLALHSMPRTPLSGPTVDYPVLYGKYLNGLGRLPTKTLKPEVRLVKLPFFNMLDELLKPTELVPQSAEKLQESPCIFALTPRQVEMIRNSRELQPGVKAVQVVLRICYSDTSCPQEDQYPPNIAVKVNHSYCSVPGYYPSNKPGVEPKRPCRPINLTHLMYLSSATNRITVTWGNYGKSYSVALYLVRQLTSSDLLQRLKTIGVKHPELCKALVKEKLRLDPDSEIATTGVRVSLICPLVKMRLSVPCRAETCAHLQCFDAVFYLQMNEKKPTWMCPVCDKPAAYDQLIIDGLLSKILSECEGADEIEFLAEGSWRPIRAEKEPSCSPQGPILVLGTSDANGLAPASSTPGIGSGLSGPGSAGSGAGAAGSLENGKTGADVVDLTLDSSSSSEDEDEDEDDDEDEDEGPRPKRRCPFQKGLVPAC
The assay is described as above.

Results are given in words; binding and its absence hold for the method and conditions named. For part of these data: Binding seen in cells or lysates may run through a third protein. Some entries that bind do so weakly or less than the wild type. For part of these data: Where a sequence is shown, tags or fusion partners need not be part of it.

B1: protein inhibitor of activated STAT Y (PIASy), prey in pGADT7 (protein, UniProt Q9JM05 1-507)
chain: MAAELVEAKNMVMSFRVSDLQMLLGFVGRSKSGLKHELVTRALQLVQFDCSPELFKKIKELYETRYAKKSAEPGPQAPRPLDPLALHSMPRTPLSGPTVDYPVLYGKYLNGLGRLPTKTLKPEVRLVKLPFFNMLDELLKPTELVPQSAEKLQESPCIFALTPRQVEMIRNSRELQPGVKAVQVVLRICYSDTSCPQEDQYPPNIAVKVNHSYCSVPGYYPSNKPGVEPKRPCRPINLTHLMYLSSATNRITVTWGNYGKSYSVALYLVRQLTSSDLLQRLKTIGVKHPELCKALVKEKLRLDPDSEIATTGVRVSLICPLVKMRLSVPCRAETCAHLQCFDAVFYLQMNEKKPTWMCPVCDKPAAYDQLIIDGLLSKILSECEGADEIEFLAEGSWRPIRAEKEPSCSPQGPILVLGTSDANGLAPASSTPGIGSGLSGPGSAGSGAGAAGSLENGKTGADVVDLTLDSSSSSEDEDEDEDDDEDEDEGPRPKRRCPFQKGLVPAC
As to B1, in assay [1], the binding entry is reported as “binds”.

B2: MYC epitope-tagged PIASy (protein, UniProt Q9JM05 1-507)
chain: MAAELVEAKNMVMSFRVSDLQMLLGFVGRSKSGLKHELVTRALQLVQFDCSPELFKKIKELYETRYAKKSAEPGPQAPRPLDPLALHSMPRTPLSGPTVDYPVLYGKYLNGLGRLPTKTLKPEVRLVKLPFFNMLDELLKPTELVPQSAEKLQESPCIFALTPRQVEMIRNSRELQPGVKAVQVVLRICYSDTSCPQEDQYPPNIAVKVNHSYCSVPGYYPSNKPGVEPKRPCRPINLTHLMYLSSATNRITVTWGNYGKSYSVALYLVRQLTSSDLLQRLKTIGVKHPELCKALVKEKLRLDPDSEIATTGVRVSLICPLVKMRLSVPCRAETCAHLQCFDAVFYLQMNEKKPTWMCPVCDKPAAYDQLIIDGLLSKILSECEGADEIEFLAEGSWRPIRAEKEPSCSPQGPILVLGTSDANGLAPASSTPGIGSGLSGPGSAGSGAGAAGSLENGKTGADVVDLTLDSSSSSEDEDEDEDDDEDEDEGPRPKRRCPFQKGLVPAC
Consider B2, for which the binding result with HA epitope-tagged Isl1 is reported as “binds”.

B3: HA epitope-tagged Isl1 (protein, UniProt P61372 1-349)
chain: MGDMGDPPKKKRLISLCVGCGNQIHDQYILRVSPDLEWHAACLKCAECNQYLDESCTCFVRDGKTYCKRDYIRLYGIKCAKCSIGFSKNDFVMRARSKVYHIECFRCVACSRQLIPGDEFALREDGLFCRADHDVVERASLGAGDPLSPLHPARPLQMAAEPISARQPALRPHVHKQPEKTTRVRTVLNEKQLHTLRTCYAANPRPDALMKEQLVEMTGLSPRVIRVWFQNKRCKDKKRSIMMKQLQQQQPNDKTNIQGMTGTPMVAASPERHDGGLQANPVEVQSYQPPWKVLSDFALQSDIDQPAFQQLVNFSEGGPGSNSTGSEVASMSSQLPDTPNSMVASPIEA
Take B3: the binding entry in assay [2] is given as “binds”.
